PubChem BioAssay AID686937, Drosophila RNAi Screening Center, 2013
In all, the deposit lists about 23,000 reagents; shown is a random part of those with a known target gene and a result. 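Reduced-secretion tags in replicate 1 do not always agree with the z-scores; no criterion for assigning the tags was given.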 Names joined by + are all predicted targets of the reagent. Not all columns of the deposit are shown. Reagent sequences are not shown. The record does not give: the amount of reagent.

Test: 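Genes in the fly needed for secretion of protein constitutively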 (primary screen)
System: Drosophila S2 cells expressing secreted horseradish peroxidase
Knock-down reagent: long dsRNA against Drosophila genes
Time to read-out: about 5.5 days (5 days dsRNA, then 12 h reporter induction)
Treatment: reporter expression induced after 5 days of dsRNA, read 12 h later; inducer not stated
Measurement: 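After 5 days of dsRNA and 12 h of reporter induction, medium peroxidase read by chemiluminescence and scored as per-plate z-score; higher values mean more reporter released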
Direction: z-score: higher = more reporter secreted into medium

z-score, replicate 1, by gene and reagent
CG42260 (GeneID 37614): DRSC04172 0.28; DRSC04385 0.2
Gfat2 (GeneID 43373): DRSC14598 -0.13
CG8003 (GeneID 39210): DRSC10946 0.51
CG3793 (GeneID 34928): DRSC01982 0.35
Dbp21E2 (GeneID 33254): DRSC00616 0.31
CG17036 (GeneID 34679): DRSC02564 0.49
Rbp4 (GeneID 41668): DRSC16818 0.38
Grp170 (GeneID 31215): DRSC18524 -0.54
lncRNA:yar (GeneID 10178876): DRSC17679 0.39; DRSC21708 0.65
CycJ (GeneID 38428): DRSC08653 0.11
CG7289 (GeneID 33372): DRSC00697 -0.07
CG43064 (GeneID 12798207): DRSC09133 0.51
coro (GeneID 35596): DRSC05007 0.1; DRSC21417 0.14
CG3655 (GeneID 31056): DRSC17676 0.55; DRSC18181 0.06; DRSC18477 0.14; DRSC22688 0.45
CG31677 (GeneID 318880): DRSC22023 0.05
PIG-C (GeneID 38410): DRSC08241 0.32
CG12857 (GeneID 36642): DRSC06197 0.24
CG7140 (GeneID 40445): DRSC11799 0.23
ND-B15 (GeneID 36640): DRSC06199 0.32
CG12594 (GeneID 41416): DRSC14532 0.35
pygo (GeneID 43718): DRSC14322 0.26
eag (GeneID 32428): DRSC19067 0.11; DRSC20328 0.31
CG7135 (GeneID 32793): DRSC20026 0.06
ab (GeneID 34560): DRSC01162 -4.53; DRSC03478 -1.14
CR32745 (GeneID 5740857): DRSC17442 -0.2
qsm (GeneID 47065): DRSC05896 0.55; DRSC06393 -0.14
CHOp24 (GeneID 31382): DRSC18310 -0.38
CG18473 (GeneID 41116): DRSC16381 0.13
Ask1 (GeneID 42366): DRSC16789 0.43; DRSC21697 0.18
Cby (GeneID 42574): DRSC14591 0.19
mus302 (GeneID 39874): DRSC09905 0.11
CG14135 (GeneID 39316): DRSC10140 0.45
Lsm10 (GeneID 36141): DRSC06250 0.1
Serinc (GeneID 39827): DRSC11296 0.34
D19B (GeneID 38717): DRSC11134 -0.28
Ccp84Ag (GeneID 40819): DRSC12592 0.47; DRSC22085 0.07
RpL24-like (GeneID 41372): DRSC16111 -0.36
asRNA:CR31845 (GeneID 12798199): DRSC22257 0.97
CG13813 (GeneID 40218): DRSC10068 0.46
Acp36DE (GeneID 35096): DRSC01860 0.26
CG31546 (GeneID 40691): DRSC12317 0.15
CG31206 (GeneID 318627): DRSC13388 0.23
asRNA:CR43426 (GeneID 12798470): DRSC11587 0.32
Dp (GeneID 36461): DRSC07402 -0.87
in (GeneID 40246): DRSC11888 0.23
CG13829 (GeneID 42740): DRSC14679 0.36
CG16903 (GeneID 31178): DRSC18561 -2.34
kin17 (GeneID 40242): DRSC11890 -0.64
RpL39 (GeneID 37849): DRSC04651 -2.71
CG4271 (GeneID 33410): DRSC00649 0.38
CG34426 (GeneID 5740622): DRSC09977 0.3
ms(3)K81 (GeneID 43232): DRSC14746 0.4
Gad1 (GeneID 38484): DRSC08661 -0.2
Prosalpha7 (GeneID 36018): DRSC07516 -4.69
CalpC (GeneID 32597): DRSC19873 0.42
CG18063 (GeneID 34943): DRSC01968 0.05
Cpes (GeneID 37782): DRSC04475 -0.32
Sply (GeneID 46059): DRSC07299 -1.57
CG33469 (GeneID 2768832): DRSC22900 -0.25
ssx (GeneID 31086): DRSC18492 -1.64
egr (GeneID 36054): DRSC06233 0.18
Dg (GeneID 36773): DRSC06718 0.15
CG14866 (GeneID 41854): DRSC14989 0.47
CG42568 + DnaJ-60: DRSC04207 0.15; DRSC04611 0.3
lncRNA:roX1 (GeneID 3772376): DRSC21884 -0.02
CG32651 (GeneID 318140): DRSC18941 0.2
swi2 (GeneID 37010): DRSC06457 0.35
CG5608 (GeneID 41543): DRSC15841 0.13
NimB5 (GeneID 34815): DRSC01885 0.23
CG1688 (GeneID 36005): DRSC05934 0.25
CG42322 (GeneID 42455): DRSC15112 0.42; DRSC15113 0.1; DRSC15114 -1.54
Klc (GeneID 39445): DRSC11203 0.12
Aptx (GeneID 42322): DRSC15768 0.4
AstA-R1 (GeneID 44126): DRSC17278 -1.96; DRSC17727 0.33
CG5062 (GeneID 31435): DRSC18385 0.27
EMC10 (GeneID 40396): DRSC11850 0.42
CG15201 (GeneID 32053): DRSC19648 0.36
CG4213 (GeneID 33209): DRSC00641 0.23
CG2217 + CG42740: DRSC14141 0.28
CG31704 (GeneID 318906): DRSC22118 0.01
CG5347 (GeneID 32403): DRSC19942 0.39
CG6788 (GeneID 32773): DRSC20007 0.07
HisT (GeneID 35697): DRSC05051 0.17; DRSC05052 0.13; DRSC06405 -0.77
Gpo2 (GeneID 35689): DRSC06822 0.39
CG11384 (GeneID 31061): DRSC18628 0.33
Ir92a (GeneID 42415): DRSC15111 0.22
B-H2 (GeneID 32723): DRSC19335 -2.74

Taken from above:
Value for Acp36DE (GeneID 35096) [DRSC01860] under “z-score, replicate 1”: 0.26
CG15201 (GeneID 32053) [DRSC19648], z-score, replicate 1 = 0.36
AstA-R1 (GeneID 44126) [DRSC17278], z-score, replicate 1 = -1.96
eag (GeneID 32428) [DRSC19067], z-score, replicate 1: 0.11
Serinc (GeneID 39827) [DRSC11296], z-score, replicate 1 = 0.34
CycJ (GeneID 38428) [DRSC08653], z-score, replicate 1 → 0.11
